According to PubChem BioAssay (EPA / NIEHS):
Inconclusive means that the source gave no clear call. Such entries were picked first, then a sample of the others. Potencies of inconclusive entries are doubtful fits and often do not repeat. Active and inactive are the calls of the source. How the source made its calls: active means hit-call score of the fitted dose curve at least 0.9, where 1 is the maximum; inconclusive means response in the unintended direction; inactive means score below 0.9.

Sequences of proteins named here, by UniProt entry; tags and fusion partners are left off.
UniProt Q92731, whole entry, looked up: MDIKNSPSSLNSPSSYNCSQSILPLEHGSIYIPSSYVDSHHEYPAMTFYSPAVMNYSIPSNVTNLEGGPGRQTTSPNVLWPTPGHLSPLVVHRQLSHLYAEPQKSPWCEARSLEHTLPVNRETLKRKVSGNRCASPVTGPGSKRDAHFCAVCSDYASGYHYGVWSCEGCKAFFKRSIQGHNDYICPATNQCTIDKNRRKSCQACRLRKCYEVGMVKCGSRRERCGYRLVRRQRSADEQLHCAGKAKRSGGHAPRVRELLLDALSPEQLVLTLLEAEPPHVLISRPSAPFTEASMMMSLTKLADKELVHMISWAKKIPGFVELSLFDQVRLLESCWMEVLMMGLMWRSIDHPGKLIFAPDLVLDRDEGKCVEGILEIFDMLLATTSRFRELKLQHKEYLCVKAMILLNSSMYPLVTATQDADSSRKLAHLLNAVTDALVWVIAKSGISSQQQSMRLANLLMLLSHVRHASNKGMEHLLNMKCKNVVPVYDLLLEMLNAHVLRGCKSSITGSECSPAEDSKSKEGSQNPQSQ

Biological target: Estrogen receptor beta (Homo sapiens) (UniProt Q92731)
Assay: OT_ER_ERbERb_0480: Odyssey Thera (OT) 8-hour HEK293T Protein-Complementation Assay for Estrogen Receptor-beta/-beta Homodimer (AID 2283357);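 further: active means signal gain over DMSO baseline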
Procedure, shortened: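 Fluorescence gain from complemented reporter fragments on ER-beta LBD homodimer in HEK293T was quantified against DMSO controls after 8 h treatment, fixation in 4% formaldehyde and Draq5 staining.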

Row | SMILES | AC50
1 | CC1(C)C(=O)NC(=O)N1CO | inconclusive: 50 µM
2 | COc1ccc(C(=O)c2ccccc2)c(O)c1 | active: 50 µM
3 | Oc1ccc(Cl)cc1Cc1cc(Cl)ccc1O | active: 11.9 µM
4 | COC(=O)CC(=O)OC | inconclusive: 50 µM
5 | OC(Cn1cncn1)(Cn1cncn1)c1ccc(F)cc1F | inconclusive: 50 µM
6 | Cc1ccc(C)c(OCCCC(C)(C)C(=O)O)c1 | inconclusive: 50 µM
7 | CO[Si](OC)(OC)c1ccccc1 | inconclusive: 50 µM

A different layout for some results above.

| Row | SMILES | AC50 |
| --- | --- | --- |
| 3 | Oc1ccc(Cl)cc1Cc1cc(Cl)ccc1O | active: 11.9 µM |
| 4 | COC(=O)CC(=O)OC | inconclusive: 50 µM |
